# In the supplement of paper PMC12889115:
# The list shows a part of the results. These are raw signals, not scaled to a control.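 Primary screen: polymyxin B was added at a level permeabilizing Salmonella outer membranes while sparing inner membranes. DMSO wells, both with and without polymyxin B, established maximum growth. Plate-to-plate variation meant each plate was ranked on its own, and the lowest-OD600 compounds were selected as hits.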
# Tested on: Salmonella enterica serovar Typhimurium SL1344
# Test: bacterial growth OD600 after 18 h with compound and polymyxin B; higher = more bacterial growth (less inhibition)
# Settings: 50 µM, Mueller-Hinton broth
Compound,bacterial growth OD600 (polymyxin B 0.75 µg/mL),bacterial growth OD600 (polymyxin B 1 µg/mL)
CCn1ccnc1CN1CCCC1C(=O)Nc1ccc(-n2ccnc2C)cc1 (configuration not stated),0.893,–
COCC1CCN(c2ccc(C(=O)NCCCc3c(C)noc3C)cn2)C1 (configuration not stated),–,1.21
CN(Cc1ccc2ccccc2n1)C(=O)c1ccc(N2CC[C@H](O)C2)nc1,–,0.905
CCCCc1nc2cc(C(=O)NCC(O)CC)ccc2o1 (configuration not stated),–,0.948
COc1cc(CN(C(=O)C2CC2)[C@H]2CCCCNC2=O)cc(OC)c1OCCc1ccsc1,0.892,–
CC(C(=O)N1CCc2[nH]nc(-c3ccc(Cl)cc3)c2C1)N1CCCC1=O (configuration not stated),0.86,–
COCCC(=O)N1CCCC(CNS(=O)(=O)c2ccc(OC)cc2)C1 (configuration not stated),–,0.925
COCCn1cnc2cc(NC(=O)C3CCCCC3)cc(C(=O)N(C)C(C)c3nc(C)cs3)c21 (configuration not stated),0.813,–
Cc1ccsc1C(=O)N1CCC(C2CCN(c3ncccn3)CC2)C1 (configuration not stated),0.57,–
COCC(=O)N1CCC(Oc2ccc(C(=O)N3CCC(COC)CC3)cc2)CC1,–,1.01
COc1ccc(F)c(CN2CCC(Oc3cc(OC)ccc3C(=O)N3CCCC3)CC2)c1,–,0.105
CCOc1ccccc1CN1CCN(Cc2ccc(O)cc2)CC1CCO (configuration not stated),–,0.899
O=C(CCC1CCCN(C2CCCCCC2)C1)Nc1ccccc1F (configuration not stated),–,0.98
CN(Cc1ccccc1Cl)C(=O)C1CCC(=O)N(CCc2cccc(F)c2)C1 (configuration not stated),–,0.851
COc1cccc(C(C)N(C)Cc2nc(COc3ccccc3)no2)c1 (configuration not stated),–,0.84
Cc1nn(C)c(C)c1CN(C(=O)c1cc(COc2cccc3cnccc23)on1)C1CC1,–,0.881

Compound,bacterial growth OD600 (polymyxin B 0.75 µg/mL),bacterial growth OD600 (polymyxin B 1 µg/mL)
COc1ccc(C(=O)NC2CC2)c(OC2CCN(Cc3ccc(C)o3)CC2)c1,–,0.932
O=C(NCc1cccnc1)c1cc(CN2CCC(Cc3ccccc3)CC2)on1,–,0.938
Cc1ccc(Oc2ncccc2CNC2Cc3ccccc3C2)cn1,–,0.858
Cn1cc(CN2CCSCC2)c(-c2ccc(Oc3ccccc3)cc2)n1,–,0.043
COc1ccc(C(=O)N(Cc2ccc(OCCCc3cccnc3)cc2)[C@H]2CCCCNC2=O)c(OC)c1,0.885,–
O=C1CCC(CCC(=O)N2CCC(c3ccccc3F)C2)(Cc2cccs2)N1 (configuration not stated),1.03,–
O=C1CCCN1CC(=O)N1CCCC(CCc2cccc(C(F)(F)F)c2)C1 (configuration not stated),0.004,–
COc1cccc(OCc2nc(C(=O)N(C)Cc3cnc4ccccn34)co2)c1,–,1.16
CCC1CN(Cc2ccc3c(c2)OCO3)Cc2cc(OC)ccc2O1 (configuration not stated),0.655,–
CCN(CCn1cccn1)C(=O)C1CCC(=O)N(CCCN2CCCC2=O)C1 (configuration not stated),–,0.866
O=C(c1cc(COc2cccc(F)c2)[nH]n1)N1CCN(CC2CC2)CC1,–,0.961
Cc1nc2cc(OCc3cc(C(=O)N(C)C(C)c4ccon4)no3)ccc2s1 (configuration not stated),–,0.92
Cc1ccc2c(c1)CN(Cc1ccncc1)CC(c1ccsc1)O2 (configuration not stated),0.005,–
Cc1nnc(CNC(=O)CC(c2ccccc2)c2ccccc2Cl)[nH]1 (configuration not stated),0.735,–
Cc1noc(C)c1CCCNC(=O)c1ccc(N(C)C2CCOC2)nc1 (configuration not stated),–,1.1
O=C(CCC1CCN(Cc2c[nH]nc2C2CCCCC2)CC1)NCc1cccnc1,–,0.958

# Laid out differently: 2 of the compounds above
Compound | bacterial growth OD600 (polymyxin B 0.75 µg/mL) | bacterial growth OD600 (polymyxin B 1 µg/mL)
Cc1noc(C)c1CCCNC(=O)c1ccc(N(C)C2CCOC2)nc1 (configuration not stated) | – | 1.1
O=C(CCC1CCN(Cc2c[nH]nc2C2CCCCC2)CC1)NCc1cccnc1 | – | 0.958
